The supplement of paper PMC12823440, “Inhibitors supercharge kinase turnover through native proteolytic circuits” (Nature, 2025)
Counter-ions that a name gives are not always drawn. This is one part of the list. Hit calls seldom repeat between salt and free forms of one compound.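 Kinases were expressed as nanoluciferase fusions in K562 cells and luminescence was read every 4 h between 2 and 18 h as percent of control, DMSO set to 100% and a positive control to 0%. A time point counts as decreased when the signal drops significantly (2 sigma). The hit call is the authors' own, does not follow from the count of time points alone, and its rule is not shown.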

target: RIPK2 (UniProt O43353); experiment: number of time points (of 5) at which kinase-Nluc abundance scored as decreased, DMSO-normalised (count); higher = more persistent destabilization; conditions: K562; 2-18 h

Compound | number of time points
C[C@@H](c1ccc2nccn2c1)n1nnc2ncc(-c3cnn(C)c3)nc21 [Savolitinib] (10 µM) | 0
CN1C(=O)C(Cc2c[nH]c3ccccc23)NC1=S (stereo not drawn) [Necrostatin-1] (10 µM) | 0
C[C@@H]1C(=O)O[C@H](C)[C@H]1C[C@@H](O)[C@](C)(O)[C@H]1CC[C@@]2(O)C3=CC(=O)[C@@H]4C[C@@H](O)[C@@H](O)C[C@]4(C)[C@H]3CC[C@]12C [Cyasterone] (10 µM) | 0
CC(c1ccc(-c2cnc3c(-c4ccc(S(N)(=O)=O)c5ccccc45)cnn3c2)cc1)N1CCCC1 (stereo not drawn) (2.5 µM) | 0
CCn1c(=O)c(-c2ccc(-c3cncc(C)n3)cc2Cl)cc2cnc(NCCC3CCN(C)CC3)nc21 (10 µM) | 0
O=C(O)c1cc(O)ccc1O [2,5-Dihydroxybenzoic acid] (10 µM) | 0
CC(=NNC(=O)c1ccc(C)c(Br)c1)c1ccc(O)cc1O [mTOR inhibitor-1] (2.5 µM) | 0
Nc1ncnc2c1ncn2[C@@H]1O[C@H](CO)C[C@H]1O [Cordycepin] (10 µM) | 0
C=CC(=O)Nc1cc2c(Nc3ccc(OCc4ccccn4)c(Cl)c3)ncnc2cc1OCCN1CCOCC1 (10 µM) | 0
Cc1ccc(S(=O)(=O)Nc2ccccc2C=Nc2ccccc2NS(=O)(=O)c2ccc(C)cc2)cc1 (10 µM) | 0
CCOc1cc(C(=O)N2CCC(N3CCN(C)CC3)CC2)ccc1Nc1ncc2c(n1)N(C1CCCC1)c1ccccc1C(=O)N2C (10 µM) | 0
Cn1cnc(-c2cc3nccc(Oc4ccc(NC(=S)NC(=O)Cc5ccccc5)cc4F)c3s2)c1 [MGCD-265 analog] (10 µM) | 0
Cn1c(=O)c(F)c(Nc2ccc(I)cc2F)c2c(=O)n(C[C@@H](O)CO)cnc21 (10 µM) | 0
Nc1ncnc2c1c(-c1ccc(Oc3ccccc3)cc1)nn2C1CCNCC1 [N-piperidine Ibrutinib (hydrochloride)] (10 µM) | 0
Cc1csc(-c2nnc(Nc3ccc(Oc4ncccc4-c4ccnc(N)n4)cc3)c3ccccc23)c1 (2.5 µM) | 0
O=C(O)CCc1ccc(O)c(O)c1 [Dihydrocaffeic acid] (10 µM) | 0
COCCOc1cnc(Sc2cc(C)c(-c3csc(NC(=O)c4ccncc4)n3)c(C)c2)cn1 [T-1101 (tosylate)] (2.5 µM) | 0
Cc1cc(NC(=O)c2cccc(NC(=O)/C=C/CN(C)C)c2)ccc1Nc1nccc(-c2cccnc2)n1 (10 µM) | 3
Cc1c(NC(=O)OC[C@@H]2COCCN2)cn2ncnc(Nc3ccc4c(cnn4Cc4cccc(F)c4)c3)c12 (10 µM) | 0

Two of the compounds above, in markdown.

| Compound | number of time points |
| --- | --- |
| Nc1ncnc2c1ncn2[C@@H]1O[C@H](CO)C[C@H]1O [Cordycepin] (10 µM) | 0 |
| C=CC(=O)Nc1cc2c(Nc3ccc(OCc4ccccn4)c(Cl)c3)ncnc2cc1OCCN1CCOCC1 (10 µM) | 0 |

More entries

Compound | number of time points
Cc1ccc(-c2c(C(=O)CF)n(CCCO)c3ncnc(N)c23)cc1 (10 µM) | 0
Cc1ccc(-c2c(C(=O)CCl)n(CCCO)c3ncnc(N)c23)cc1 (10 µM) | 4
COc1cc(F)c(F)c(Nc2ccc(I)cc2F)c1NS(=O)(=O)C1(C[C@H](O)CO)CC1 [Refametinib] (10 µM) | 0
CCN(CC)c1ccc2cc(C(=O)N3CCN(C(=O)C4=Cc5c(Br)cccc5S4(=O)=O)CC3)c(=O)oc2c1 (2 µM) | 0
COc1ccc(C(=C2C(=O)Nc3ccccc32)c2ccc(OC)cc2)cc1 (10 µM) | 0
N#Cc1ccc2ncnc(NC3CCC(N4CCOCC4)CC3)c2c1 (stereo not drawn) (10 µM) | 0
NCCN1CCN(C/C=C/C(=O)N2CCC[C@@H](n3nc(-c4ccc(Oc5ccccc5)cc4)c4c(N)ncnc43)C2)CC1 [Ibrutinib-MPEA] (10 µM) | 0
CN(CC(=O)N(Cc1ccc(C2CCCCC2)cc1)c1ccc(C(=O)O)cc1)S(=O)(=O)c1c(F)c(F)c(F)c(F)c1F (2.5 µM) | 0
CCn1c(C(=O)N(C2CC2)C2CC2)cc2c3c(ncn3C)c(Nc3cc(C)n(C)n3)nc21 (10 µM) | 0
CC(C)CN(CC(=O)N1CCN(CC(OCc2ccc3ccccc3c2)c2ccc(Cl)cc2Cl)CC1)CC(C)C (stereo not drawn) [LYN-1604 (dihydrochloride)] (2.5 µM) | 0
COc1ccc2[nH]cc(/C=C3\C(=O)Nc4ccc(NC(=O)CCN5CCCCC5)cc43)c2c1 (2.5 µM) | 0
CC(C)=CC(=O)CCC(=O)N1CCN(Cc2cc3nc(-c4cccc5[nH]ncc45)nc(N4CCOCC4)c3s2)CC1 (10 µM) | 0
O=C(NCCO)c1ccc2c(c1)nc(Nc1cccc(Cl)c1)c1ccncc12 [CK2 inhibitor 2] (10 µM) | 0
COc1ccc(CC(=O)Nc2nc3c(s2)CCc2ccccc2-3)cc1OC (10 µM) | 0
c1cc2c(cc1O[C@H]1OC[C@H]3[C@@H]1CO[C@@H]3c1ccc3c(c1)OCO3)OCO2 [Sesamolin] (10 µM) | 0
OCCNC1CCCc2c1[nH]c1ccc(-c3ccccc3)cc21 (stereo not drawn) (2.5 µM) | 0
CNc1nc(Nc2cnn(C3CCN(C4COC4)CC3F)c2Cl)ncc1C(F)(F)F (stereo not drawn) (10 µM) | 0
Cc1cc2cc(Nc3ccnc(Nc4ccc5[nH]c(C)cc5c4)n3)ccc2[nH]1 (2.5 µM) | 0
CC(C)(C)NC(=O)c1cncn1C1CCN(c2ccc(-c3nnc(C(F)(F)F)o3)cn2)CC1 (10 µM) | 0
